These are yes or no findings as the source states them, for the method shown. Binding seen in cells or lysates may run through a third protein. Here binding means that the protein was enriched with, or labelled near, the bait; the list need not be complete. Sequences can lack the tags named with a protein. Blank lines part the entries; values can stand above or below the binder they belong to.
Key:
[1] = target: T1, Utp4p-TAP (chromosome encoded TAP tagged Utp4p, UTP-A component) (S. cerevisiae) (UniProt Q06679); test: affinity purification with mass spectrometry; Utp4p-TAP affinity purified on IgG coupled magnetic beads from yeast cellular extracts (MB buffer: 20 mM Tris-HCl pH 8, 200 mM KCl, 5 mM MgOAc, 0.5% Triton X-100, 0.1% Tween 20, 4°C); eluate digested with trypsin, iTRAQ labelled, LC-MALDI-TOF/TOF; wildtype cells compared with cells depleted of rpS5, rpS13 or rpS14 (4 h glucose); fractions are taken as early pre-ribosomes, which hold pre-rRNA
T1 sequence: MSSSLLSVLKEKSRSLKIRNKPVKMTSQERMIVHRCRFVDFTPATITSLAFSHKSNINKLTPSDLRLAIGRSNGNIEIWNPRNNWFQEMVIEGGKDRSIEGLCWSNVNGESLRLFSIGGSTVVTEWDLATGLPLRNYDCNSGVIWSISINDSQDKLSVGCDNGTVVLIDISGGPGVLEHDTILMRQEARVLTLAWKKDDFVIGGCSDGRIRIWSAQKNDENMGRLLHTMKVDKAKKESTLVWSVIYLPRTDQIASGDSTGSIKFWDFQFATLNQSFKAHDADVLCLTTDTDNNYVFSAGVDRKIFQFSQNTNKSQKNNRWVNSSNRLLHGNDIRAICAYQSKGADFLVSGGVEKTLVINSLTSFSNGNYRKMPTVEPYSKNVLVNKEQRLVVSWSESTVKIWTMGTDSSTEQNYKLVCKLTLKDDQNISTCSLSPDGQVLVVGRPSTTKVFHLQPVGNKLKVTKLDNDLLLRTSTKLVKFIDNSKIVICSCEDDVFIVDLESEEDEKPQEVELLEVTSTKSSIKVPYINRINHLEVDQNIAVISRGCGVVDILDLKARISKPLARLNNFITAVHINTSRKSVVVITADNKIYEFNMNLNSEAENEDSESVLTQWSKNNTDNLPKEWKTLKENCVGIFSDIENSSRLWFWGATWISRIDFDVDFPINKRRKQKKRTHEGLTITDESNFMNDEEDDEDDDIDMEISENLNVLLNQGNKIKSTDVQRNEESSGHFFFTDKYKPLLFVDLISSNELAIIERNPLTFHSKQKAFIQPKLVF

[2] = target: T2, Noc4p-TAP (chromosome encoded C-terminal TAP-fusion allele of Noc4p) (S. cerevisiae) (UniProt Q06512); test: affinity purification with mass spectrometry; Noc4p-TAP affinity purified on IgG coupled magnetic beads from yeast cellular extracts (MB buffer: 20 mM Tris-HCl pH 8, 200 mM KCl, 5 mM MgOAc, 0.5% Triton X-100, 0.1% Tween 20, 4°C); eluate digested with trypsin, iTRAQ labelled, LC-MALDI-TOF/TOF; wildtype cells compared with cells depleted of rpS5, rpS13 or rpS22 (4 h glucose)
T2 sequence: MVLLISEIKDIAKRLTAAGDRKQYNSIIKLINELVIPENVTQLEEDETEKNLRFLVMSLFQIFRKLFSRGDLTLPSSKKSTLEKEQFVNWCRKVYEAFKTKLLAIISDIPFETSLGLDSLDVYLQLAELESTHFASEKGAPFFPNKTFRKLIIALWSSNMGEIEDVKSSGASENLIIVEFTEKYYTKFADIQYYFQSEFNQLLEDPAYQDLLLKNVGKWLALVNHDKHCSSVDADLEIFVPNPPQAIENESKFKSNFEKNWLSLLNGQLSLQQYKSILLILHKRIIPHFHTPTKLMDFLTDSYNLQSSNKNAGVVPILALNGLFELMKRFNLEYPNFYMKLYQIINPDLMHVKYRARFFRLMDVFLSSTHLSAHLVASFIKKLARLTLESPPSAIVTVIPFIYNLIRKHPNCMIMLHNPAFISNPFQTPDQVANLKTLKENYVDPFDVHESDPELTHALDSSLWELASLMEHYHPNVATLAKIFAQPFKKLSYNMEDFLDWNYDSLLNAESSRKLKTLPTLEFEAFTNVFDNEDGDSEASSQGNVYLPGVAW

B1: Noc4p (protein, UniProt Q06512 1-552)
chain: MVLLISEIKDIAKRLTAAGDRKQYNSIIKLINELVIPENVTQLEEDETEKNLRFLVMSLFQIFRKLFSRGDLTLPSSKKSTLEKEQFVNWCRKVYEAFKTKLLAIISDIPFETSLGLDSLDVYLQLAELESTHFASEKGAPFFPNKTFRKLIIALWSSNMGEIEDVKSSGASENLIIVEFTEKYYTKFADIQYYFQSEFNQLLEDPAYQDLLLKNVGKWLALVNHDKHCSSVDADLEIFVPNPPQAIENESKFKSNFEKNWLSLLNGQLSLQQYKSILLILHKRIIPHFHTPTKLMDFLTDSYNLQSSNKNAGVVPILALNGLFELMKRFNLEYPNFYMKLYQIINPDLMHVKYRARFFRLMDVFLSSTHLSAHLVASFIKKLARLTLESPPSAIVTVIPFIYNLIRKHPNCMIMLHNPAFISNPFQTPDQVANLKTLKENYVDPFDVHESDPELTHALDSSLWELASLMEHYHPNVATLAKIFAQPFKKLSYNMEDFLDWNYDSLLNAESSRKLKTLPTLEFEAFTNVFDNEDGDSEASSQGNVYLPGVAW
binding [1]: binds

B2: Nop14p/Noc5p (protein, UniProt Q99207 1-810)
chain: MAGSQLKNLKAALKARGLTGQTNVKSKNKKNSKRQAKEYDREEKKKAIAEIREEFNPFEIKAARNKRRDGLPSKTADRIAVGKPGISKQIGEEQRKRAFEARKMMKNKRGGVIDKRFGERDKLLTEEEKMLERFTRERQSQSKRNANLFNLEDDEDDGDMFGDGLTHLGQSLSLEDELANDEEDFLASKRFNEDDAELQQPQRKKTKAEVMKEVIAKSKFYKQERQKAQGIMEDQIDNLDDNFEDVMSELMMTQPKKNPMEPKTDLDKEYDIKVKELQLDKRAAPSDRTKTEEEKNAEAEEKKRELEQQRLDRMNGMIELEEGEERGVEDLDDGFWENEEDYEDDNDGIADSDDDIKFEDQGRDEGFSQILKKKNISISCPRTHDALLDQVKKLDLDDHPKIVKNIIKAYQPKLAEGNKEKLGKFTAVLLRHIIFLSNQNYLKNVQSFKRTQNALISILKSLSEKYNRELSEECRDYINEMQARYKKNHFDALSNGDLVFFSIIGILFSTSDQYHLVITPALILMSQFLEQIKFNSLKRIAFGAVLVRIVSQYQRISKRYIPEVVYFFQKILLTFIVEKENQEKPLDFENIRLDSYELGLPLDVDFTKKRSTIIPLHTLSTMDTEAHPVDQCVSVLLNVMESLDATISTVWKSLPAFNEIILPIQQLLSAYTSKYSDFEKPRNILNKVEKLTKFTEHIPLALQNHKPVSIPTHAPKYEENFNPDKKSYDPDRTRSEINKMKAQLKKERKFTMKEIRKDAKFEARQRIEEKNKESSDYHAKMAHIVNTINTEEGAEKNKYERERKLRGGKK
binding [2]: binds
binding [1]: binds

Next, values leading:

binding [1]: binds
B3: Utp22p (protein, UniProt P53254 1-1237)
chain: MATSVKRKASETSDQNIVKVQKKHSTQDSTTDNGSKENDHSSQAINERTVPEQENDESDTSPESNEVATNTAATRHNGKVTATESYDIHIARETAELFKSNIFKLQIDELLEQVKLKQKHVLKVEKFLHKLYDILQEIPDWEEKSLAEVDSFFKNKIVSVPFVDPKPIPQNTNYKFNYKKPDISLIGSFALKAGIYQPNGSSIDTLLTMPKELFEKKDFLNFRCLHKRSVYLAYLTHHLLILLKKDKLDSFLQLEYSYFDNDPLLPILRISCSKPTGDSLSDYNFYKTRFSINLLIGFPYKVFEPKKLLPNRNCIRIAQESKEQSLPATPLYNFSVLSSSTHENYLKYLYKTKKQTESFVEATVLGRLWLQQRGFSSNMSHSGSLGGFGTFEFTILMAALLNGGGINSNKILLHGFSSYQLFKGVIKYLATMDLCHDGHLQFHSNPENSSSSPASKYIDEGFQTPTLFDKSTKVNILTKMTVSSYQILKEYAGETLRMLNNVVQDQFSNIFLTNISRFDNLKYDLCYDVQLPLGKYNNLETSLAATFGSMERVKFITLENFLAHKITNVARYALGDRIKYIQIEMVGQKSDFPITKRKVYSNTGGNHFNFDFVRVKLIVNPSECDKLVTKGPAHSETMSTEAAVFKNFWGIKSSLRRFKDGSITHCCVWSTSSSEPIISSIVNFALQKHVSKKAQISNETIKKFHNFLPLPNLPSSAKTSVLNLSSFFNLKKSFDDLYKIIFQMKLPLSVKSILPVGSAFRYTSLCQPVPFAYSDPDFFQDVILEFETSPKWPDEITSLEKAKTAFLLKIQEELSANSSTYRSFFSRDESIPYNLEIVTLNILTPEGYGFKFRVLTERDEILYLRAIANARNELKPELEATFLKFTAKYLASVRHTRTLENISHSYQFYSPVVRLFKRWLDTHLLLGHITDELAELIAIKPFVDPAPYFIPGSLENGFLKVLKFISQWNWKDDPLILDLVKPEDDIRDTFETSIGAGSELDSKTMKKLSERLTLAQYKGIQMNFTNLRNSDPNGTHLQFFVASKNDPSGILYSSGIPLPIATRLTALAKVAVNLLQTHGLNQQTINLLFTPGLKDYDFVVDLRTPIGLKSSCGILSATEFKNITNDQAPSNFPENLNDLSEKMDPTYQLVKYLNLKYKNSLILSSRKYIGVNGGEKGDKNVITGLIKPLFKGAHKFRVNLDCNVKPVDDENVILNKEAIFHEIAAFGNDMVINFETD

binding [1]: binds
B4: Rrp7p (protein, UniProt P25368 1-297)
chain: MGIEDISAMKNGFIVVPFKLPDHKALPKSQEASLHFMFAKRHQSSNSNESDCLFLVNLPLLSNIEHMKKFVGQLCGKYDTVSHVEELLYNDEFGLHEVDLSALTSDLMSSTDVNEKRYTPRNTALLKFVDAASINNCWNALKKYSNLHAKHPNELFEWTYTTPSFTTFVNFYKPLDIDYLKEDIHTHMAIFEQREAQAQEDVQSSIVDEDGFTLVVGKNTKSLNSIRKKILNKNPLSKHENKAKPISNIDKKAKKDFYRFQVRERKKQEINQLLSKFKEDQERIKVMKAKRKFNPYT

binding [1]: binds
B5: RNA helicase Rok1p (protein, UniProt P45818 1-564)
chain: MDIFRVLTRGASVKKESGPKAKAADYSVINGNDENHKEDNNESQIVKELDFFRNKRIISKVEDDREKTTENDSPNKEEKSGNDDGLIKPVITNTVEASALRKSYKGNVSGIDIPLPIGSFEDLISRFSFDKRLLNNLIENGFTEPTPIQCECIPVALNNRDVLACGPTGSGKTLAFLIPLVQQIIDDKQTAGLKGLIISPTKELANQIFIECFKLSYKIFLEKKRPLQVALLSKSLGAKLKNKVVSDKKYDIIISTPLRLIDVVKNEALDLSKVKHLIFDEADKLFDKTFVEQSDDILSACREPSLRKAMFSATIPSNVEEIAQSIMMDPVRVIIGHKEAANTNIEQKLIFCGNEEGKLIAIRQLVQEGEFKPPIIIFLESITRAKALYHELMYDRINVDVIHAERTALQRDRIIERFKTGELWCLICTDVLARGIDFKGVNLVINYDVPGSSQAYVHRIGRTGRGGRSGKAITFYTKQDSVAIKPIINVMKQSGCEVSEWMDKMAKMTRKEKESIKNGKAHKERKQITTVPKMDKAKRRRQQEMIAASKRRKNEELSKKHFSK

From paper PMC3303783
